The target in experiment [1] is T1, DRAM1 expressed from DRAM1-pcDNA4 (UniProt Q8N682).
T1 sequence: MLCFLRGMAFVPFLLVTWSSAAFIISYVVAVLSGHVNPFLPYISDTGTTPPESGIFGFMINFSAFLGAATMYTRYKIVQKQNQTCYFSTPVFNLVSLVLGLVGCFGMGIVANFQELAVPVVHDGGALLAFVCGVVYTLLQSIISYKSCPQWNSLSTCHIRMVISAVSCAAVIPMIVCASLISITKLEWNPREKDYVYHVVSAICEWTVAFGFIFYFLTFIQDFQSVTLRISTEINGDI
Put plainly: co-IP; HeLa cell lysates (untransfected or vector, or DRAM1-pcDNA4 for 48 h; also after serum-free medium for 4 h) incubated with 2 ug antibody (anti-BAX or anti-DRAM1) overnight at 4 °C, IgG/IgA beads, washed three times in 1x PBS pH 7.4, immunoblot.

Chains of the proteins cited; added tags and fusions are not shown.
UniProt Q07812: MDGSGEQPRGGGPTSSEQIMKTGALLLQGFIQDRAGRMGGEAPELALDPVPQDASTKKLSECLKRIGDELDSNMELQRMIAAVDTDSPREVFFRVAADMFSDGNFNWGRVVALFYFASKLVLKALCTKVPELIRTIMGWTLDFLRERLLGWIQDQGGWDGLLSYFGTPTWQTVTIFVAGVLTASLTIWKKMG

The target of experiment [2] is T2, DRAM1 (DNA damage-regulated autophagy modulator 1) (human (endogenous in HeLa)) (UniProt Q8N682).
T2 sequence: T1 sequence
The experiment is described as above.

These are yes or no findings as the source states them, for the method shown. In cells and extracts the contact can be indirect. Some binding calls cover weakened binding; strength is not graded here.

As to BAX (from UniProt Q07812 1-192), the binding result in experiment [1] and in experiment [2] was “binds” throughout.

Source of the values: article PMC4669745.
